In the supplement of paper PMC4604168 (melanoma cell lines):
Some of the results follow. Single values are uncertain, as repeats are few or missing.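 Cells were imaged in 1,536-well plates, and nuclei stained with an antibody against cleaved PARP were counted against all DNA-stained nuclei to give the apoptosis fraction. Screening doses were chosen to leave most cells alive, and resting and induced cleaved-PARP levels differ strongly between cell lines.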

system: UACC257; assay: cleaved PARP positive nuclei fraction relative to DMSO control; melanoma cells; higher = more apoptosis; conditions: library dose: low library concentration; 72 h

SMILES | cleaved PARP positive nuclei fraction [%]
CCc1ccc(CCOc2ccc(CC3SC(=O)NC3=O)cc2)nc1 (stereo unspecified) [pioglitazone] + CCCCCCCCCCCC1=C(O)C(=O)C=C(O)C1=O [Embelin] (first compound 2 µM, partner dose 1.2 µM) | 49.3
CN(C)S(=O)(=O)c1ccc2c(c1)/C(=C/c1cc3c([nH]1)CCCC3)C(=O)N2 + c1cc(-c2cnn3cc(-c4ccc(OCCN5CCCCC5)cc4)cnc23)ccn1 [Dorsomorphin] (first compound 0.4 µM, partner dose 0.4 µM) | 53.7
O=C(Nc1ccccc1)c1cc([N+](=O)[O-])ccc1Cl + O=c1cc(-c2cccc3c2Sc2ccccc2S3)oc(N2CCOCC2)c1 [KU55933] (first compound 2 µM, partner dose 1 µM) | 100
COc1cc2ncnc(Nc3ccc(Oc4ccccc4)cc3)c2cc1OC + O=C(O)C(=O)Nc1sc2c(c1C(=O)O)CCNC2 [TCS401] (first compound 2 µM, partner dose 1.66667 µM) | 42
COc1ccc(-c2ccc3c(N4CCOCC4)nc(N4C[C@@H](C)O[C@@H](C)C4)nc3n2)cc1CO + Oc1nc(-c2ccc(C(F)(F)F)cc2)nc2c1CSCC2 [XAV939] (first compound 0.02 µM, partner dose 2 µM) | 301
CN(NC(=O)CC(=O)NN(C)C(=S)c1ccccc1)C(=S)c1ccccc1 + CCc1ccc(CCOc2ccc(CC3SC(=O)NC3=O)cc2)nc1 [pioglitazone] (first compound 0.006 µM, partner dose 2 µM) | 126
CCc1ccc(CCOc2ccc(CC3SC(=O)NC3=O)cc2)nc1 (stereo unspecified) [pioglitazone] + Cc1cc([N+](=O)[O-])ccc1NS(=O)(=O)c1cc(Cl)ccc1Cl [FH535] (first compound 2 µM, partner dose 1 µM) | 71.7
CCN(CC)CCCCNc1ncc2cc(-c3cc(OC)cc(OC)c3)c(NC(=O)NC(C)(C)C)nc2n1 + O=c1cc(-c2cccc3c2Sc2ccccc2S3)oc(N2CCOCC2)c1 [KU55933] (first compound 0.1 µM, partner dose 1 µM) | 158
COc1ccc(COc2ccc(Cc3cnc(N)nc3N)cc2OC)cc1 + O=C1NC(=O)/C(=C/c2ccc(-c3ccc(F)cc3O)o2)S1 [AS252424] (first compound 1 µM, partner dose 1 µM) | 116
Oc1cc(-c2nc(-c3ccccc3)[nH]c2-c2ccncc2)ccc1Cl + Cn1cc(/C=C2\C(=O)Nc3cccnc32)c2ccccc21 [GW441756] (first compound 0.2 µM, partner dose 0.4 µM) | 150
NCC(=O)Nc1ccc(-n2nc(C(F)(F)F)cc2-c2ccc3c(ccc4ccccc43)c2)cc1 + Oc1cc(-c2nc(-c3ccccc3)[nH]c2-c2ccncc2)ccc1Cl [L779450] (first compound 1 µM, partner dose 0.2 µM) | 151
O=S(=O)(c1ccccc1)N(CC(F)(F)F)c1ccc(C(O)(C(F)(F)F)C(F)(F)F)cc1 + CC(C)CCN1c2nc(Nc3cc(F)c(O)c(F)c3)ncc2N(C)C(=O)C1C [BID1870] (first compound 1.4 µM, partner dose 0.2 µM) | 158
Cn1cc(/C=C2\C(=O)Nc3cccnc32)c2ccccc21 + CC(C)CCN1c2nc(Nc3cc(F)c(O)c(F)c3)ncc2N(C)C(=O)C1C [BID1870] (first compound 0.4 µM, partner dose 0.2 µM) | 46.5
O=C1NC(=O)/C(=C/c2ccc(-c3ccc(F)cc3O)o2)S1 + COc1cc(N2CCC(N3CCN(C)CC3)CC2)ccc1Nc1ncc(Cl)c(Nc2ccccc2S(=O)(=O)C(C)C)n1 [NVP-TAE684] (first compound 1 µM, partner dose 0.08 µM) | 159
N#Cc1c(O)c2c(-c3ccc(-c4ccccc4O)cc3)csc2[nH]c1=O + CCN(CC)CCCCNc1ncc2cc(-c3cc(OC)cc(OC)c3)c(NC(=O)NC(C)(C)C)nc2n1 [PD173074] (first compound 2 µM, partner dose 0.1 µM) | 191
CN(C)S(=O)(=O)c1ccc2c(c1)/C(=C/c1cc3c([nH]1)CCCC3)C(=O)N2 + COc1ccc2c(c1)CCC1C2CCC2(C)C(NCCCCCCN3C(=O)C=CC3=O)CCC12 [U73122] (first compound 0.4 µM, partner dose 0.4 µM) | 74.2
Oc1cc(-c2nc(-c3ccccc3)[nH]c2-c2ccncc2)ccc1Cl + c1cc(-c2cnn3cc(-c4ccc(OCCN5CCCCC5)cc4)cnc23)ccn1 [Dorsomorphin] (first compound 0.2 µM, partner dose 0.4 µM) | 252
Oc1nc(-c2ccc(C(F)(F)F)cc2)nc2c1CSCC2 + CCCCCCCCCCCC1=C(O)C(=O)C=C(O)C1=O [Embelin] (first compound 2 µM, partner dose 1.2 µM) | 86

SMILES | cleaved PARP positive nuclei fraction [%]
CN(C)S(=O)(=O)c1ccc2c(c1)/C(=C/c1cc3c([nH]1)CCCC3)C(=O)N2 + CCN(CC)CCCCNc1ncc2cc(-c3cc(OC)cc(OC)c3)c(NC(=O)NC(C)(C)C)nc2n1 [PD173074] (first compound 0.4 µM, partner dose 0.1 µM) | 268
COc1ccc(-c2ccc3c(N4CCOCC4)nc(N4C[C@@H](C)O[C@@H](C)C4)nc3n2)cc1CO + O=c1cc(-c2cccc3c2Sc2ccccc2S3)oc(N2CCOCC2)c1 [KU55933] (first compound 0.02 µM, partner dose 1 µM) | 120
NCC(=O)Nc1ccc(-n2nc(C(F)(F)F)cc2-c2ccc3c(ccc4ccccc43)c2)cc1 + Cn1cc(/C=C2\C(=O)Nc3cccnc32)c2ccccc21 [GW441756] (first compound 1 µM, partner dose 0.4 µM) | 231
COc1ccc(-c2ccc3c(N4CCOCC4)nc(N4C[C@@H](C)O[C@@H](C)C4)nc3n2)cc1CO + CC(C)CCN1c2nc(Nc3cc(F)c(O)c(F)c3)ncc2N(C)C(=O)C1C [BID1870] (first compound 0.02 µM, partner dose 0.2 µM) | 260
CCN(CC)CCCCNc1ncc2cc(-c3cc(OC)cc(OC)c3)c(NC(=O)NC(C)(C)C)nc2n1 + Cc1cc([N+](=O)[O-])ccc1NS(=O)(=O)c1cc(Cl)ccc1Cl [FH535] (first compound 0.1 µM, partner dose 1 µM) | 192
COc1cc2c(Oc3ccc4[nH]c(C)cc4c3F)ncnc2cc1OCCCN1CCCC1 [cediranib] + CCN(CC)CCCCNc1ncc2cc(-c3cc(OC)cc(OC)c3)c(NC(=O)NC(C)(C)C)nc2n1 [PD173074] (first compound 0.4 µM, partner dose 0.1 µM) | 53.6
O=C(O)c1ccc(-c2c[nH]c3ncc(-c4ccccc4)cc23)cc1C1CCCC1 + Cn1cc(/C=C2\C(=O)Nc3cccnc32)c2ccccc21 [GW441756] (first compound 0.16 µM, partner dose 0.4 µM) | 33.4
O=C(O)c1ccc(-c2c[nH]c3ncc(-c4ccccc4)cc23)cc1C1CCCC1 + Oc1nc(-c2ccc(C(F)(F)F)cc2)nc2c1CSCC2 [XAV939] (first compound 0.16 µM, partner dose 2 µM) | 203
N#Cc1c(O)c2c(-c3ccc(-c4ccccc4O)cc3)csc2[nH]c1=O + COc1cc(N2CCC(N3CCN(C)CC3)CC2)ccc1Nc1ncc(Cl)c(Nc2ccccc2S(=O)(=O)C(C)C)n1 [NVP-TAE684] (first compound 2 µM, partner dose 0.08 µM) | 86.5
Oc1cc(-c2nc(-c3ccccc3)[nH]c2-c2ccncc2)ccc1Cl + COc1cc(N2CCC(N3CCN(C)CC3)CC2)ccc1Nc1ncc(Cl)c(Nc2ccccc2S(=O)(=O)C(C)C)n1 [NVP-TAE684] (first compound 0.2 µM, partner dose 0.08 µM) | 141
COc1ccc2c(c1)CCC1C2CCC2(C)C(NCCCCCCN3C(=O)C=CC3=O)CCC12 (stereo unspecified) + Oc1cc(-c2nc(-c3ccccc3)[nH]c2-c2ccncc2)ccc1Cl [L779450] (first compound 0.4 µM, partner dose 0.2 µM) | 42.1
COc1cc2c(Oc3ccc4[nH]c(C)cc4c3F)ncnc2cc1OCCCN1CCCC1 [cediranib] + Oc1cc(-c2nc(-c3ccccc3)[nH]c2-c2ccncc2)ccc1Cl [L779450] (first compound 0.4 µM, partner dose 0.2 µM) | 201
O=S(=O)(c1ccccc1)N(CC(F)(F)F)c1ccc(C(O)(C(F)(F)F)C(F)(F)F)cc1 + Cn1cc(/C=C2\C(=O)Nc3cccnc32)c2ccccc21 [GW441756] (first compound 1.4 µM, partner dose 0.4 µM) | 206
N#Cc1c(O)c2c(-c3ccc(-c4ccccc4O)cc3)csc2[nH]c1=O + CC(C)CCN1c2nc(Nc3cc(F)c(O)c(F)c3)ncc2N(C)C(=O)C1C [BID1870] (first compound 2 µM, partner dose 0.2 µM) | 67.2
O=S(=O)(c1ccccc1)N(CC(F)(F)F)c1ccc(C(O)(C(F)(F)F)C(F)(F)F)cc1 + Oc1cc(-c2nc(-c3ccccc3)[nH]c2-c2ccncc2)ccc1Cl [L779450] (first compound 1.4 µM, partner dose 0.2 µM) | 57.4
CN(NC(=O)CC(=O)NN(C)C(=S)c1ccccc1)C(=S)c1ccccc1 + COC(=O)c1sccc1S(=O)(=O)Nc1ccc(Nc2ccccc2)cc1OC [GSK0660] (first compound 0.006 µM, partner dose 1 µM) | 159
COc1cc2c(Oc3ccc4[nH]c(C)cc4c3F)ncnc2cc1OCCCN1CCCC1 [cediranib] + O=C(O)C(=O)Nc1sc2c(c1C(=O)O)CCNC2 [TCS401] (first compound 0.4 µM, partner dose 1.66667 µM) | 118
COC(=O)c1sccc1S(=O)(=O)Nc1ccc(Nc2ccccc2)cc1OC + CCCCCCCCCCCC1=C(O)C(=O)C=C(O)C1=O [Embelin] (first compound 1 µM, partner dose 1.2 µM) | 134

A section from the list above:
SMILES | cleaved PARP positive nuclei fraction [%]
O=C(Nc1ccccc1)c1cc([N+](=O)[O-])ccc1Cl + O=c1cc(-c2cccc3c2Sc2ccccc2S3)oc(N2CCOCC2)c1 [KU55933] (first compound 2 µM, partner dose 1 µM) | 100
COc1cc2ncnc(Nc3ccc(Oc4ccccc4)cc3)c2cc1OC + O=C(O)C(=O)Nc1sc2c(c1C(=O)O)CCNC2 [TCS401] (first compound 2 µM, partner dose 1.66667 µM) | 42
